{
  "source": "paper PMC3234234",
  "about": "“A Host Small GTP-binding Protein ARL8 Plays Crucial Roles in Tobamovirus RNA Replication” (PLoS Pathogens, 2011)",
  "note": "Results are given in words; binding and its absence hold for the method and conditions named. Binding seen in cells or lysates may run through a third protein. Binding can be weak; no strength is given. Tags and fused reporters may be left off the sequences shown.",
  "data": [
    {"target": "T1, C-terminally FLAG-StrepII-tagged NtARL8a (NtARL8a-FS) (Nicotiana tabacum) (UniProt H1AD87)", "T1 sequence": "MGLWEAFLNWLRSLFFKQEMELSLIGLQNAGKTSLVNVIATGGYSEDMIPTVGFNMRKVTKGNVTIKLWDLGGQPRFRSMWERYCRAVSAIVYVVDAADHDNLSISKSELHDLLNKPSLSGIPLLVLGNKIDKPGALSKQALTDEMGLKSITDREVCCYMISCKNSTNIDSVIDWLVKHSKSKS", "assay": "co-IP; NtARL8a-FS immunopurified with anti-FLAG antibody from LPC-solubilized P15 membranes of NtARL8a-FS-expressing BY-2 cells, uninfected or ToMV-GFP-infected; immunoblots for ARL8, TOM1 and 130K/180K", "values": [
      {"substance": "NtTOM1 (Nicotiana tabacum TOM1), endogenous", "binding": "binds"},
      {"substance": "ToMV 130K replication protein (Tomato mosaic virus)", "binding": "binds"},
      {"substance": "ToMV 180K replication protein (untagged) (Tomato mosaic virus)", "binding": "binds"}
    ]}
  ]
}
